According to PubChem BioAssay (EPA / NIEHS):
This list was built around the results that the source calls inconclusive (neither active nor inactive); the mix of calls is not that of the screen. A potency beside an inconclusive call is a rough fit, not a confirmed value. Activity calls are given as the source filed them. How the source made its calls: active means hit-call score of the fitted dose curve at least 0.9, where 1 is the maximum; inconclusive means response in the unintended direction; inactive means score below 0.9.

Amino acid sequences for entries named in this document (tags omitted). A change or cut given only in a name is not applied to a line headed by its entry.
UniProt P10275: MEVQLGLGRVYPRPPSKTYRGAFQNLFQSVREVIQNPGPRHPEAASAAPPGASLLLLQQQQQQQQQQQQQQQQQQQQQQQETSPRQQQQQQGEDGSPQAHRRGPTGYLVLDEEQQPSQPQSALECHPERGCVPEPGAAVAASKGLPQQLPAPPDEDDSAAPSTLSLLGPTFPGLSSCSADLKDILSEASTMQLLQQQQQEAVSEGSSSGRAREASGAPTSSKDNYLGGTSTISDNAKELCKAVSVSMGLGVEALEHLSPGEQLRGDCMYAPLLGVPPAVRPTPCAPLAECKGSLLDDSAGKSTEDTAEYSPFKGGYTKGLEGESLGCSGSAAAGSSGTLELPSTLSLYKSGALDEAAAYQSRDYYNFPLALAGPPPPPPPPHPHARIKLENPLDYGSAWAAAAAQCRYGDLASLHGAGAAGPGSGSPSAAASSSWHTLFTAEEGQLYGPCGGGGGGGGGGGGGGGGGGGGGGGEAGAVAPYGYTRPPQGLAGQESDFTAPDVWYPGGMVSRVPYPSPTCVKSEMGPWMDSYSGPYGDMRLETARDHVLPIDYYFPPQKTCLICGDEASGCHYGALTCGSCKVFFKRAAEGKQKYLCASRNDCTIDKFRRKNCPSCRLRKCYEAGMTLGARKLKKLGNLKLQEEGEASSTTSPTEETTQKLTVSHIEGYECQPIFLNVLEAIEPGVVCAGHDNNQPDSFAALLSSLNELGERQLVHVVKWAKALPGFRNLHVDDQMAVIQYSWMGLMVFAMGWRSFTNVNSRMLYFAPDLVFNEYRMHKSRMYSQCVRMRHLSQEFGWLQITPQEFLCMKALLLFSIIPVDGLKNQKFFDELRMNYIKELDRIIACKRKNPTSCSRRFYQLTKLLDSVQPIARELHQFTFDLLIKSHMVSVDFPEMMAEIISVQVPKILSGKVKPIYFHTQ
UniProt P04386, whole entry, looked up: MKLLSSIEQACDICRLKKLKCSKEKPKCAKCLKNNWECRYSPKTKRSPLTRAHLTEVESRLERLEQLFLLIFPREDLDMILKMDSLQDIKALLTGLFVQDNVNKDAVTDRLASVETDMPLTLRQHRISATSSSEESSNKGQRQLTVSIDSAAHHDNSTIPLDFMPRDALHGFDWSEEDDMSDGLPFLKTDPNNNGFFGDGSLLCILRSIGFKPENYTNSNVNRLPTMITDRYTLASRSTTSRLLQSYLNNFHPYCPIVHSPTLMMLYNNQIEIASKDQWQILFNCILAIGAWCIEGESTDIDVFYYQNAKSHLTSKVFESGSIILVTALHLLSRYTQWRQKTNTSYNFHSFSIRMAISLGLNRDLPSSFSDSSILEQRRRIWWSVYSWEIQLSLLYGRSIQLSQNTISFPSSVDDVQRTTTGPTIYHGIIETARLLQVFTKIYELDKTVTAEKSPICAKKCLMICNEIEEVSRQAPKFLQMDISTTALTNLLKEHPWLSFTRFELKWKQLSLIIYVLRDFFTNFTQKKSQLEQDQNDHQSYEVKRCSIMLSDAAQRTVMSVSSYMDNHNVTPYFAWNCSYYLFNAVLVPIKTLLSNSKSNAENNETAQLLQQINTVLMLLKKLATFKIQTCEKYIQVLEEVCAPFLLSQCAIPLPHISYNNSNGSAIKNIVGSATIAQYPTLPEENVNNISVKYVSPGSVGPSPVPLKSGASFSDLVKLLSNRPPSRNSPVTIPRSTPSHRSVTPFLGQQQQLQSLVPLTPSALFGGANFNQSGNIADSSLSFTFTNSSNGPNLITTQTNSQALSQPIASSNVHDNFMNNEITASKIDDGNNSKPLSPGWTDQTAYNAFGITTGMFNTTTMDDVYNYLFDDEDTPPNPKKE

Target: human Androgen Receptor (AR), AR (gene 367) (UniProt P10275)
Assay: ATG_hAR_XSP1: Attagene TRANS-FACTORIAL Multi-Species (XSP1) HepG2 Assay for human Androgen Receptor (AR) (AID 2283785)

Row | SMILES | outcome | AC50
1 | CC[C@H](c1ccc(O)cc1)[C@@H](CC)c1ccc(O)cc1 | inactive | –
2 | O=C(c1ccc(O)cc1O)c1ccc(O)cc1O | – | inconclusive: 10000 nM
4 | C[C@]12CC[C@H]3C(=CCc4cc(O)ccc43)[C@@H]1CCC2=O | – | inconclusive: 160 nM

Tested on: turtle Androgen Receptor (AR), gene 101947425
Assay: ATG_trAR_XSP1: Attagene TRANS-FACTORIAL Multi-Species (XSP1) HepG2 Assay for turtle Androgen Receptor (AR) (AID 2283786)
Summary of the method: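 Partial androgen stimulation is provided by 3 nM 6-alpha-fluorotestosterone in a multi-species trans-factorial panel expressing a turtle AR–GAL4 fusion in HepG2. After 24 h, reporter mRNA is measured by RT-PCR and capillary electrophoresis and fitted upward against DMSO.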

Row | SMILES | AC50 | outcome
5 | CC[C@H](c1ccc(O)cc1)[C@@H](CC)c1ccc(O)cc1 | inconclusive: 100 nM | –
6 | O=C(c1ccc(O)cc1O)c1ccc(O)cc1O | – | inactive
8 | C[C@]12CC[C@H]3C(=CCc4cc(O)ccc43)[C@@H]1CCC2=O | inconclusive: 272 nM | –

Target: AR (gene 367) (UniProt P10275)
Assay: ACEA_AR_antagonist_80hr: ACEA Biosciences xCELLigence Real-Time Cell Analysis on Androgen Receptor Antagonism for Proliferation (AID 2283787);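 further: 22Rv1 human prostate cancer cells with growth followed by electrical impedance; hits lower the impedance growth signal relative to DMSO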
Summary of the method: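 Measures real-time proliferation of 22Rv1 prostate cancer cells by electrode impedance at 80 hours after dosing. Test articles ran at eight concentrations (1:4 steps, top 100 uM final) in biological duplicate.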

Row | SMILES | outcome | AC50
9 | CC(C)=CCCC(C)CCO (stereo not drawn) | inactive | –
10 | O=C(O)c1ccccc1C(c1ccc(O)cc1)c1ccc(O)cc1 | inactive | –
11 | CCOC(=O)COc1cc(-n2ncc(C(F)(F)F)c(C)c2=O)c(F)cc1Cl | – | inconclusive: 8.52 nM
12 | COc1cc(O)c(C(=O)c2ccccc2)cc1S(=O)(=O)O | – | inconclusive: 4460 nM
13 | CCN=c1cc2oc3cc(NCC)c(C)cc3c(-c3ccccc3C(=O)OCC)c-2cc1C | – | active: 43.6 nM
14 | OC[C@H]1O[C@@H](O[C@H]2[C@H](O)[C@@H](O)[C@H](O)O[C@@H]2CO)[C@H](O)[C@@H](O)[C@H]1O | – | inconclusive: 3300 nM
15 | NC(=NCCCCCCN=C(N)/N=C(\N)Nc1ccc(Cl)cc1)/N=C(\N)Nc1ccc(Cl)cc1 | – | active: 9250 nM
16 | CCCCCCC(C)(C)C(=O)O | – | inconclusive: 272 nM

Nothing new here: 2 of the compounds above.
Row | SMILES | outcome | AC50
12 | COc1cc(O)c(C(=O)c2ccccc2)cc1S(=O)(=O)O | – | inconclusive: 4460 nM
13 | CCN=c1cc2oc3cc(NCC)c(C)cc3c(-c3ccccc3C(=O)OCC)c-2cc1C | – | active: 43.6 nM

Target: GAL4 Transcription Factor (Internal Marker), GAL4 (gene 855828) (UniProt P04386)
Assay: ATG_GAL4_XSP1: Attagene TRANS-FACTORIAL Multi-Species (XSP1) HepG2 Assay for GAL4 Transcription Factor (Internal Marker) (AID 2283789)
Summary of the method: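 This background-control endpoint measures GAL4-driven reporter mRNA via RT-PCR and capillary electrophoresis of labelled fragments. Transiently transfected HepG2 cells were treated 24 h, with 3 nM 6-alpha-fluorotestosterone included, and gain-of-signal was fitted against DMSO.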

Row | SMILES | outcome | AC50
17 | CC[C@H](c1ccc(O)cc1)[C@@H](CC)c1ccc(O)cc1 | inactive | –
18 | O=C(c1ccc(O)cc1O)c1ccc(O)cc1O | – | inconclusive: 944 nM
20 | C[C@]12CC[C@H]3C(=CCc4cc(O)ccc43)[C@@H]1CCC2=O | – | inconclusive: 253 nM

Tested on: not listed separately
Assay: ATG_M_61_XSP1: Attagene TRANS-FACTORIAL Multi-Species (XSP1) HepG2 Assay for M61 Transcription Factor (Internal Marker) (AID 2283797)
Summary of the method: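 Background-control readout: reporter transcripts measured by RT-PCR and capillary electrophoresis 24 h after dosing transiently transfected HepG2 multi-reporter cells, with 3 nM 6-alpha-fluorotestosterone present. Fitted in the positive direction relative to DMSO.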

Row | SMILES | outcome | AC50
21 | O=C(c1ccc(O)cc1O)c1ccc(O)cc1O | inactive | –
23 | C[C@]12CC[C@H]3C(=CCc4cc(O)ccc43)[C@@H]1CCC2=O | inactive | –
